# Literature values, collected in patent publication US7189742B2, “Piperidin-2,6-dione bisulphate salts and their use for the treatment of stress related affective disorders” (Prestwick Pharmaceuticals, Inc., priority 2001, dated 2007).
# At least one structure is not confirmed: it was looked up by name or label, or the drawing left a doubt.
# Test system: Male Wistar rats
# Conditions: earlier studies; cited from earlier work
smiles,measurement,value
CN(C)CCCC1(c2ccc(F)cc2)OCc2cc(C#N)ccc21 (stereo not shown) [citalopram],efficacy against CMS-induced anhedonia when doses increased above threshold active ones,not more effective
